No constants are given. Whether binding was seen depends on the method and setting. For some of these results: Binding seen in cells or lysates may run through a third protein. Some binding calls cover weakened binding; strength is not graded here. Values belong to the substance of their own block, whether it stands above or below them.
Key:
[1] = target: Glutathione S-transferase (GST)-tagged Ube2s (not stated (human or mouse cDNA cloned)) (UniProt Q921J4); assay: pull-down; purified GST-tagged Ube2s on glutathione-sepharose beads, incubated with purified His-tagged β-Catenin at 4 °C overnight; washed four times with lysis buffer; western blot with anti-β-Catenin and anti-GST; GST alone as control; both purified
[2] = target: UBE2S, human, endogenous (human (endogenous in HCT116 and 293 cells)) (UniProt Q16763); assay: co-IP; human embryonic kidney 293 cells
[3] = target: UBE2S, human, endogenous (human (endogenous in HCT116 and 293 cells)) (UniProt Q16763); assay: co-IP; HCT116 cells; UBE2S and β-CATENIN
[4] = target: Cdc27 subunit of APC/C (mouse (endogenous in mES cells)) (UniProt A2A6Q5); assay: co-IP; mES cells; β-Catenin and Cdc27
[5] = target: Ub-conjugating enzyme E2S (Ube2s), mouse, endogenous (mouse (endogenous in mES cells and F9 cells)) (UniProt Q921J4); assay: co-IP; pluripotent F9 teratoma cells
[6] = target: Ub-conjugating enzyme E2S (Ube2s), mouse, endogenous (mouse (endogenous in mES cells and F9 cells)) (UniProt Q921J4); assay: co-IP; cytoplasm and nuclear extracts of mES cells, each taken for co-IP
[7] = target: Ub-conjugating enzyme E2S (Ube2s), mouse, endogenous (mouse (endogenous in mES cells and F9 cells)) (UniProt Q921J4); assay: co-IP; whole cell extracts of mES cells; IP with the antibody against Ube2s or β-Catenin, western blot for the other; Protein-G beads, 4 °C overnight, NP40 lysis buffer washes

Protein sequences, listed by entry. Tags and fused reporters are not part of them. Lines headed by an entry give the natural chain unless they say otherwise; changes in a name come on top.
UniProt Q921J4: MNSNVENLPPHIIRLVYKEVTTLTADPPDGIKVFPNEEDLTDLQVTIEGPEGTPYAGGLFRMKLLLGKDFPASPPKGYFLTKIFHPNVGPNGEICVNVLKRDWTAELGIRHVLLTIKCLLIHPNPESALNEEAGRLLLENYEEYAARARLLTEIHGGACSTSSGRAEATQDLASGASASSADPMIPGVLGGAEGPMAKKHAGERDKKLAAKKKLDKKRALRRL
UniProt Q16763: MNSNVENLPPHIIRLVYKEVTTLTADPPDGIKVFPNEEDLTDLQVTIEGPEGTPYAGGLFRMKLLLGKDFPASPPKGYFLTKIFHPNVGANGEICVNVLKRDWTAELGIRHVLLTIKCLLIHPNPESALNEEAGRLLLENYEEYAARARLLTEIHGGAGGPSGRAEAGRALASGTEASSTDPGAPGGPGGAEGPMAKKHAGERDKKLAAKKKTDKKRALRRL
UniProt A2A6Q5: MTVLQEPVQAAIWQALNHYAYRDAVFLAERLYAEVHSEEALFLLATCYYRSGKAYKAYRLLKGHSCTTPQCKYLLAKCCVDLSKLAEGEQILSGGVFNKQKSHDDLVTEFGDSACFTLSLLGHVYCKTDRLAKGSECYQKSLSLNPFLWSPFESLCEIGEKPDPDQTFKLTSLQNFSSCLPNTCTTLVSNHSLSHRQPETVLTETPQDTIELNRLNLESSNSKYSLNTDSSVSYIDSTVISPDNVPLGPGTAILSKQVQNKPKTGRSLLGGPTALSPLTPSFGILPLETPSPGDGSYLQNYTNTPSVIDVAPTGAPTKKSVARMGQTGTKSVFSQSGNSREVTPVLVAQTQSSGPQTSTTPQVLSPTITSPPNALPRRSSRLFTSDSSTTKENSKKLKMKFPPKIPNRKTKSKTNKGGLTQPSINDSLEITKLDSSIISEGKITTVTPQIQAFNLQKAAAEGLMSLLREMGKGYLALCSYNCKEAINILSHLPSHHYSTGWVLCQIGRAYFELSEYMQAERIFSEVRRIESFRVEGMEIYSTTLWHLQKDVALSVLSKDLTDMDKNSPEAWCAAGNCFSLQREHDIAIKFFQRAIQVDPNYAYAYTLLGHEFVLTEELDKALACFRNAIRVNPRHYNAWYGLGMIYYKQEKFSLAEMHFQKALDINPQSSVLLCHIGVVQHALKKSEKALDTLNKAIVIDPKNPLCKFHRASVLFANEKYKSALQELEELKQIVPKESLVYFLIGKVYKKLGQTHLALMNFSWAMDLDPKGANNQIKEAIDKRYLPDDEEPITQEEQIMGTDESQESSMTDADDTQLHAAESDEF
UniProt Q02248: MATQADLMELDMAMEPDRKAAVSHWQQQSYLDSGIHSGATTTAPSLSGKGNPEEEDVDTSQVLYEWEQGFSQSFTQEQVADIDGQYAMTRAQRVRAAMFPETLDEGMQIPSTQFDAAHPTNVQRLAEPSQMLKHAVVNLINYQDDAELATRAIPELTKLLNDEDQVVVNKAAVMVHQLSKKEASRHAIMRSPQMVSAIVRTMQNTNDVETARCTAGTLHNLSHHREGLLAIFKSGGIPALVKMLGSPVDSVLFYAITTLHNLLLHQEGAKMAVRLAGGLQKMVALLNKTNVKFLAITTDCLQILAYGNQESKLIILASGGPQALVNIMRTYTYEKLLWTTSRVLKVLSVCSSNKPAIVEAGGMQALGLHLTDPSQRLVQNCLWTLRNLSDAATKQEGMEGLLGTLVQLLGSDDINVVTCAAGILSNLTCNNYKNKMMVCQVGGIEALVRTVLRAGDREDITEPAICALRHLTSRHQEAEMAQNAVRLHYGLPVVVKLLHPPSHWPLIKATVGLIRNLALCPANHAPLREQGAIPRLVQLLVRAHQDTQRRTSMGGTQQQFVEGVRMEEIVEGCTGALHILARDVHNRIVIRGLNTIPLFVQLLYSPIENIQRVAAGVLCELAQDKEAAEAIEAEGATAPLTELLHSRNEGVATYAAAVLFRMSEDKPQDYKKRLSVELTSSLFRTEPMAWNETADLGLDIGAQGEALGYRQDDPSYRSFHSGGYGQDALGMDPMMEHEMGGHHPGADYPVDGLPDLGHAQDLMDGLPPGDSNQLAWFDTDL
UniProt P35222: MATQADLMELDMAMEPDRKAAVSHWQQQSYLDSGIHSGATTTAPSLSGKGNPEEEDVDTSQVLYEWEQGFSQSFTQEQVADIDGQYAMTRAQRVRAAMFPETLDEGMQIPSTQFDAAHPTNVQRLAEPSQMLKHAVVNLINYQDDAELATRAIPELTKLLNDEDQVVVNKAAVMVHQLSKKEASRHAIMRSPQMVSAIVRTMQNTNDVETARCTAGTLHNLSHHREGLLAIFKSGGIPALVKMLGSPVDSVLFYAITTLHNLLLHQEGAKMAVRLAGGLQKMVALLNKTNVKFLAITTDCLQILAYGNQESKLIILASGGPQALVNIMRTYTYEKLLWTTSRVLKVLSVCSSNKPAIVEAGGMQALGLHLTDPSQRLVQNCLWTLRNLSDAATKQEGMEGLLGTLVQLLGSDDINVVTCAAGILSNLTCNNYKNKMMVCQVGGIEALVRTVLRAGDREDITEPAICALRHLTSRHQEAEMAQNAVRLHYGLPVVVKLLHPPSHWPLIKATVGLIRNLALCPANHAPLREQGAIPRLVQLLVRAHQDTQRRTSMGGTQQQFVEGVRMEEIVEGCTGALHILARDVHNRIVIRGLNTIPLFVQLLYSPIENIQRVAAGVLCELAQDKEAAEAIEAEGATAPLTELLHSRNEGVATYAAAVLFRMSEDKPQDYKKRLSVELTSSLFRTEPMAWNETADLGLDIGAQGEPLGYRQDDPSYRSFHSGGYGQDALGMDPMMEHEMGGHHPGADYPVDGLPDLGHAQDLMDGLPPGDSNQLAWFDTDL

- binding [1]: binds
Substance: His6-tagged β-Catenin (from UniProt Q02248 1-781)

- binding [2]: binds
- binding [3]: binds
Substance: β-CATENIN, human, endogenous (from UniProt P35222 1-781)

- binding [4]: binds
- binding [6]: binds
- binding [7]: binds
Substance: β-Catenin, mouse, endogenous (from UniProt Q02248 1-781)
- binding [5]: binds

Source: paper PMC5908793
